Data published in CN114409766A.
No constants are given. Whether binding was seen depends on the method and setting. Some results given as binding are weak or reduced against the parent protein; the word gives no strength.

The chains behind the UniProt entries cited, without tags or fusion partners. Residues count along the entry.
UniProt P03200, residues 1-860: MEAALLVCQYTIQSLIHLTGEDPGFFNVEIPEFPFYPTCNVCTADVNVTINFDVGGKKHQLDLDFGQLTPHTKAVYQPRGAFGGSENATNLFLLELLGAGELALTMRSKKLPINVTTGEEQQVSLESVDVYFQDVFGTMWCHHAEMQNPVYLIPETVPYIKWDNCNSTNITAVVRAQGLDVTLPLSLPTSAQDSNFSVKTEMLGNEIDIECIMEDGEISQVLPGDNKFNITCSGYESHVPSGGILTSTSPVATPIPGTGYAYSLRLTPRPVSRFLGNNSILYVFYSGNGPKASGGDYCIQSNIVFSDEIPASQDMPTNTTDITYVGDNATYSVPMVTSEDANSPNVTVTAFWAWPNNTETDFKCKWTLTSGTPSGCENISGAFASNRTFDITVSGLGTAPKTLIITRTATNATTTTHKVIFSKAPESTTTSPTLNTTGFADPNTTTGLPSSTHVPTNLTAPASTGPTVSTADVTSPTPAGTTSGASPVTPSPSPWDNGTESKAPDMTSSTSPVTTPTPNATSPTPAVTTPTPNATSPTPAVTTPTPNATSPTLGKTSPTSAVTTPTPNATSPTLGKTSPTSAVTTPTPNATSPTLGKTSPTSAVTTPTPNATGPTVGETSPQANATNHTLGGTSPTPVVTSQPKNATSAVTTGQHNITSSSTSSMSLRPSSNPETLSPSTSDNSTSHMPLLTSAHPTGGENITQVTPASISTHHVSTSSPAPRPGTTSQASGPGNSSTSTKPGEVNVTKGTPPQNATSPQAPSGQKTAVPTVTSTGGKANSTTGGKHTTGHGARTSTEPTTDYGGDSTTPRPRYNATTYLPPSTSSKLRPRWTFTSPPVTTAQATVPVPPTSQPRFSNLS
UniProt P20023, residues 21-971: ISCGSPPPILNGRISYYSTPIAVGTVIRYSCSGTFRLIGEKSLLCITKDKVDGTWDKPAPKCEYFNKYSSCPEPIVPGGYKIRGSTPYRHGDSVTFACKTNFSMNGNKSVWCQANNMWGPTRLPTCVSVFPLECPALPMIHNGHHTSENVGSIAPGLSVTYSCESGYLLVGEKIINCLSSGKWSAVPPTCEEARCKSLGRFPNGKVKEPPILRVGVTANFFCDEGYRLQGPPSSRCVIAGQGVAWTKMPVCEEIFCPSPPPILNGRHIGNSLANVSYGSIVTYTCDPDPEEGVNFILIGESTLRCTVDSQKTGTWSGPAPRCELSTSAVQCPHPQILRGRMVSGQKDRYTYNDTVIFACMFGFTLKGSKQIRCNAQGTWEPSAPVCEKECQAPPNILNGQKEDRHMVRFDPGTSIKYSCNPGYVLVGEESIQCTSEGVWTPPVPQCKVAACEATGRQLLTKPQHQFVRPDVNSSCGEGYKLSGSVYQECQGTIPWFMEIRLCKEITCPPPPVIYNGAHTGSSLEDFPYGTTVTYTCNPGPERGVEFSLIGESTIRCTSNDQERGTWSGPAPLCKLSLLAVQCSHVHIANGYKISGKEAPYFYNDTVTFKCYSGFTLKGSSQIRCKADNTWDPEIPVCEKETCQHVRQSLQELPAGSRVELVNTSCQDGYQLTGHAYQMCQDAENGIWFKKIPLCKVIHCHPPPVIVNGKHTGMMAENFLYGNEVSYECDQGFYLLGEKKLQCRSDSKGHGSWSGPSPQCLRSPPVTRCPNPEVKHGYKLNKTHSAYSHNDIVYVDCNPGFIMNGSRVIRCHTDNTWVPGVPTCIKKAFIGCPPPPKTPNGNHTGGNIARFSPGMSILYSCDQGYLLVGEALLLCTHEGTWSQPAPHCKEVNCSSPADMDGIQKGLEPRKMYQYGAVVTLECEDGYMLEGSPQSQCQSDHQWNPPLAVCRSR

Molecular target: gp350-hFc (Epstein-Barr virus) (UniProt P03200)
Assay: ELISA, gp350-hFc coated, titrated binder

## 重组CR2蛋白 (from UniProt P20023 21-971) (receptor)
  binding: binds
